Source: paper PMC4669809
No constants are given. Whether binding was seen depends on the method and setting. In cells and extracts the contact can be indirect. Some binding calls cover weakened binding; strength is not graded here.

Sequences of proteins named here, by UniProt entry; tags and fusion partners are left off.
UniProt P02340: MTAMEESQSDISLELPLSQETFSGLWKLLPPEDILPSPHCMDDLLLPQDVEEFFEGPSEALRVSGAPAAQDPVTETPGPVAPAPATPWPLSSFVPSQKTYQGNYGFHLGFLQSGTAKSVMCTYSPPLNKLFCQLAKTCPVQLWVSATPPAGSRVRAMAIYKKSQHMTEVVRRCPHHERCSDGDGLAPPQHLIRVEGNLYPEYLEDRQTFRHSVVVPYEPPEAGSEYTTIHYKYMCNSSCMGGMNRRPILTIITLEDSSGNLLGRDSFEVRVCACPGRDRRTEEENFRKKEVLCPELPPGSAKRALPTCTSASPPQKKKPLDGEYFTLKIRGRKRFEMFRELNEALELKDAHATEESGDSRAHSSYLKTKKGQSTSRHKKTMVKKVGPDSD

Key:
[1] = target: p53 (mouse (endogenous in D3 murine embryonic stem cells)) (UniProt P02340); test: co-sedimentation; 10-40% sucrose gradient of lysates of D3 mESCs and of D3 cells differentiated 7 days with retinoic acid, 100 000 x g, 4 °C, 18 h; 28 fractions analysed by western blot
[2] = target: p53 (mouse (endogenous in D3 murine embryonic stem cells)) (UniProt P02340); test: co-IP; p53 precipitated from 1 mg D3 mESC lysate (10 mM HEPES pH 7.4, 50 mM NaCl, 0.5 M sucrose, 0.5% Triton X-100, DNAse) with anti-p53 antibody 1C12 on protein A-agarose, 2 h at 4 °C; MdmX detected by western blot; cells not irradiated or irradiated with 7 Gray and lysed 3 h later (interaction strongly reduced after irradiation)

B1: MdmX (mouse double minute X) (protein, UniProt O35618 1-489)
chain: MTSHSTSAQCSASDSACRISSEQISQVRPKLQLLKILHAAGAQGEVFTMKEVMHYLGQYIMVKQLYDQQEQHMVYCGGDLLGDLLGCQSFSVKDPSPLYDMLRKNLVTSASINTDAAQTLALAQDHTMDFPSQDRLKHGATEYSNPRKRTEEEDTHTLPTSRHKCRDSRADEDLIEHLSQDETSRLDLDFEEWDVAGLPWWFLGNLRNNCIPKSNGSTDLQTNQDIGTAIVSDTTDDLWFLNETVSEQLGVGIKVEAANSEQTSEVGKTSNKKTVEVGKDDDLEDSRSLSDDTDVELTSEDEWQCTECKKFNSPSKRYCFRCWALRKDWYSDCSKLTHSLSTSNITAIPEKKDNEGIDVPDCRRTISAPVVRPKDGYLKEEKPRFDPCNSVGFLDLAHSSESQEIISSAREQTDIFSEQKAETESMEDFQNVLKPCSLCEKRPRDGNIIHGKTSHLTTCFHCARRLKKSGASCPACKKEIQLVIKVFIA
- binding [1]: binds
- binding [2]: binds
